From the supplement of paper PMC10849652
Some of the results follow.

The chains behind the UniProt entries cited, without tags or fusion partners. Where a name states a change or a piece, a line headed by the entry shows the natural chain unless it says otherwise.
UniProt Q99611, whole entry, looked up: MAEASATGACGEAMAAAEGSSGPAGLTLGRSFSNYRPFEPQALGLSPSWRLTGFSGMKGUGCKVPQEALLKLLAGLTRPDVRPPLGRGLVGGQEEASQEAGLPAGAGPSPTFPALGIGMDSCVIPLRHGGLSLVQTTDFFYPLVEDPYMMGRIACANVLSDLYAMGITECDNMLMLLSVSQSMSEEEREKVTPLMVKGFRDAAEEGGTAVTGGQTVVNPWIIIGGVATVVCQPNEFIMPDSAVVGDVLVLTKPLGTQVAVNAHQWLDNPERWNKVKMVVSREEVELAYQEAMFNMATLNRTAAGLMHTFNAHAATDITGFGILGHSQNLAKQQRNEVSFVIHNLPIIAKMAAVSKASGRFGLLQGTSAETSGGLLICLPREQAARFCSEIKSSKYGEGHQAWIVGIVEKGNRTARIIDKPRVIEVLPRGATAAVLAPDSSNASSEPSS
UniProt Q96FV2: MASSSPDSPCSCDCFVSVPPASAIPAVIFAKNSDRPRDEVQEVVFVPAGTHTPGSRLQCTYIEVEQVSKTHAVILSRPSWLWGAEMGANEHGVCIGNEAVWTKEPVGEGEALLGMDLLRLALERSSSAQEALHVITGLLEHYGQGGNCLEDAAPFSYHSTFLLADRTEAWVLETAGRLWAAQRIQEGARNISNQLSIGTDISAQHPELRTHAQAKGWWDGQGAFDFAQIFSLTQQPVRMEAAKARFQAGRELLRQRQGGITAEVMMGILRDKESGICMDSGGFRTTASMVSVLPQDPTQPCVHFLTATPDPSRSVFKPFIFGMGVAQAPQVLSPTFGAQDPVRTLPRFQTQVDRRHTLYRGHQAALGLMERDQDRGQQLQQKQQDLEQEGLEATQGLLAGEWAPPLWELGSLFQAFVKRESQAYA
UniProt Q9HD40: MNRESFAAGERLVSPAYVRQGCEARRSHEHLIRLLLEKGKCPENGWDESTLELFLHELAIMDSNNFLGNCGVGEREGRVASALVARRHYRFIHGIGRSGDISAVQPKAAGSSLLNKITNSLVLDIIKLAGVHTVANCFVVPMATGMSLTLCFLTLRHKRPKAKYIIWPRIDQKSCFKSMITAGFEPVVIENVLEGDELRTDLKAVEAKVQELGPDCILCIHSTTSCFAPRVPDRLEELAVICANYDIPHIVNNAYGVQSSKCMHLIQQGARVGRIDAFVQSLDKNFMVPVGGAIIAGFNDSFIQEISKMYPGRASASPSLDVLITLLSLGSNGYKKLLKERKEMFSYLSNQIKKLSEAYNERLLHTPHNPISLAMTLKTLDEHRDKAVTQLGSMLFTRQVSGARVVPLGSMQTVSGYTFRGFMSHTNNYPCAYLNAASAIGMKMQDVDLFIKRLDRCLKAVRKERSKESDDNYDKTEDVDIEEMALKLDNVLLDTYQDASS
UniProt Q15436: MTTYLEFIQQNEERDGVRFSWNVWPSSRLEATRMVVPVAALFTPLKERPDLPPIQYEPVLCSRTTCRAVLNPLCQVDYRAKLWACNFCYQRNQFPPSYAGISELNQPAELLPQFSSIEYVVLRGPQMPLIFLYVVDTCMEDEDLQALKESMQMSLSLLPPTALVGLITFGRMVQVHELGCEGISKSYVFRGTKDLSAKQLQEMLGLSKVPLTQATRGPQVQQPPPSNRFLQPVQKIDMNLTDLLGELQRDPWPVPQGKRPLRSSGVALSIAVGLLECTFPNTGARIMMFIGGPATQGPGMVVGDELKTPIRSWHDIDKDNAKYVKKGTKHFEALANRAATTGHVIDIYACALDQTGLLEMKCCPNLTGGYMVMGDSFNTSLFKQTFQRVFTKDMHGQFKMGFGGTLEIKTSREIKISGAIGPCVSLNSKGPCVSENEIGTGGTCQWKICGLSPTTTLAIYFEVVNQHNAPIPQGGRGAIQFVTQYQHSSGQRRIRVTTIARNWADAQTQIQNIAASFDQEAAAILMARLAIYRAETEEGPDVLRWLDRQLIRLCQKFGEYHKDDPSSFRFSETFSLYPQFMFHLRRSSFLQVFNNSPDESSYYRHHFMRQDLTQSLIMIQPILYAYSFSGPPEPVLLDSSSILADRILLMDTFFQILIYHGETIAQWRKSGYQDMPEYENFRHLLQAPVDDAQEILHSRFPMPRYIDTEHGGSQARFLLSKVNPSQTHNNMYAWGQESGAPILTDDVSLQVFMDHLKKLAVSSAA
UniProt Q99643: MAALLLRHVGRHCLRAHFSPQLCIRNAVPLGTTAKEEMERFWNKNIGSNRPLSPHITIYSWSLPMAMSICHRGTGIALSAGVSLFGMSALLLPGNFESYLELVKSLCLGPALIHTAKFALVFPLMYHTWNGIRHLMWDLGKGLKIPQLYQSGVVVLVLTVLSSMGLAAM
UniProt Q9BW04: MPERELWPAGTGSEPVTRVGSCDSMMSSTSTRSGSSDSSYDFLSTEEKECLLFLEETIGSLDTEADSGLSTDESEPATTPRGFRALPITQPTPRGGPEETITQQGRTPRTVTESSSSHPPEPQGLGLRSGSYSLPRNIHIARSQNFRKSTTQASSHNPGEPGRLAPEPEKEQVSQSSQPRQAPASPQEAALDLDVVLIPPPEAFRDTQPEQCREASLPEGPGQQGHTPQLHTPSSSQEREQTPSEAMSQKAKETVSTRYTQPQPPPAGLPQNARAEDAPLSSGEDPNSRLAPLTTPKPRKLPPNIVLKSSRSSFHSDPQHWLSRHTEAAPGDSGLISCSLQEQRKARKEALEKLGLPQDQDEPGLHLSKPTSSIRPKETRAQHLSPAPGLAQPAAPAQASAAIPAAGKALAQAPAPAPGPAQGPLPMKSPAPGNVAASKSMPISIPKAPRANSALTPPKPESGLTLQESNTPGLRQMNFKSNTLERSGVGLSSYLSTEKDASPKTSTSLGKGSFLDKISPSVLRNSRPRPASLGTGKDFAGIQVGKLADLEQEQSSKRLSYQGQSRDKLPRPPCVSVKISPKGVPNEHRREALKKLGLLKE
UniProt Q9BQE4, whole entry, looked up: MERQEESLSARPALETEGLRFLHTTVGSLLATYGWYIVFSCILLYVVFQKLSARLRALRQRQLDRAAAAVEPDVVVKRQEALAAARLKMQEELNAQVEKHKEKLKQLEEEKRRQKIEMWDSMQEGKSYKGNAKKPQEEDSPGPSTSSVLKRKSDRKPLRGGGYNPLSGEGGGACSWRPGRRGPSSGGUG
UniProt Q14141: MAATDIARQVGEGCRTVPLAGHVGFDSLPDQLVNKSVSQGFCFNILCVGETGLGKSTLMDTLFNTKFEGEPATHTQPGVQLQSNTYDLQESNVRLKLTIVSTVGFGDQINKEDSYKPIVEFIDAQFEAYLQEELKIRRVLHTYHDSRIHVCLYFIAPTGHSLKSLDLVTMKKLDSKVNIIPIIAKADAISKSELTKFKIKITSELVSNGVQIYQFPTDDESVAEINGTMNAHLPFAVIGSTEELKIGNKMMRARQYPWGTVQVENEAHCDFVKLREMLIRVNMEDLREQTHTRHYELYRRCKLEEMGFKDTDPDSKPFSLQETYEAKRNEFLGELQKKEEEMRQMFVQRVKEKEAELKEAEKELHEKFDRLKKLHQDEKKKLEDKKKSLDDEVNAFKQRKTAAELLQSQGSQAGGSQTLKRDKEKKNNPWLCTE
UniProt Q9UHR5: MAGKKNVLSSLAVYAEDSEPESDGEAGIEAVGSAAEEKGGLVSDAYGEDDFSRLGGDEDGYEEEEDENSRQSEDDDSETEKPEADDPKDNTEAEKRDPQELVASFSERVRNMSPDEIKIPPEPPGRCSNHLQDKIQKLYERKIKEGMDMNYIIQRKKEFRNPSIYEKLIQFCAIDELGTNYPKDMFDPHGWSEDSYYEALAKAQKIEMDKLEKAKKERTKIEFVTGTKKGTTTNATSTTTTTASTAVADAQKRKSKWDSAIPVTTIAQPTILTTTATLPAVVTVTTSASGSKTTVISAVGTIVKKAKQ
UniProt Q9UHD8: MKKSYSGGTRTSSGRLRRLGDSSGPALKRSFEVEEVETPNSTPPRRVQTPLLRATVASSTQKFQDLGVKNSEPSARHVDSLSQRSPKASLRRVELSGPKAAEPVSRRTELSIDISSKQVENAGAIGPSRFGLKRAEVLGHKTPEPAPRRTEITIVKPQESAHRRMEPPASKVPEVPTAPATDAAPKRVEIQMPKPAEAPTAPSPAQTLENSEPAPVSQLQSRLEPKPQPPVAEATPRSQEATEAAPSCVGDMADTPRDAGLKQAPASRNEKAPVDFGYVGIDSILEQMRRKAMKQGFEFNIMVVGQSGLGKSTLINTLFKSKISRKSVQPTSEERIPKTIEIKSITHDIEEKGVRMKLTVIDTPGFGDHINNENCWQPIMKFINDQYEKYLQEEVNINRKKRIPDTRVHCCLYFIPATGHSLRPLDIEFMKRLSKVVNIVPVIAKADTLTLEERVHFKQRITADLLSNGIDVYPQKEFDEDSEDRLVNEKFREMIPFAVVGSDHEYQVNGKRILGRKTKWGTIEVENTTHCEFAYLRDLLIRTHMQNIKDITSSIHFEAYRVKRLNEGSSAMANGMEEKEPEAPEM
UniProt Q9NR31: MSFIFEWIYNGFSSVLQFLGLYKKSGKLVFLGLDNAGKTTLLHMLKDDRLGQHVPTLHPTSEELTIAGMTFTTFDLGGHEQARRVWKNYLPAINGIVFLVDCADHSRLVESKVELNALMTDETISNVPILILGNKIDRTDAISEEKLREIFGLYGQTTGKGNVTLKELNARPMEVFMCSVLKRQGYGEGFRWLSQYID
UniProt P22307: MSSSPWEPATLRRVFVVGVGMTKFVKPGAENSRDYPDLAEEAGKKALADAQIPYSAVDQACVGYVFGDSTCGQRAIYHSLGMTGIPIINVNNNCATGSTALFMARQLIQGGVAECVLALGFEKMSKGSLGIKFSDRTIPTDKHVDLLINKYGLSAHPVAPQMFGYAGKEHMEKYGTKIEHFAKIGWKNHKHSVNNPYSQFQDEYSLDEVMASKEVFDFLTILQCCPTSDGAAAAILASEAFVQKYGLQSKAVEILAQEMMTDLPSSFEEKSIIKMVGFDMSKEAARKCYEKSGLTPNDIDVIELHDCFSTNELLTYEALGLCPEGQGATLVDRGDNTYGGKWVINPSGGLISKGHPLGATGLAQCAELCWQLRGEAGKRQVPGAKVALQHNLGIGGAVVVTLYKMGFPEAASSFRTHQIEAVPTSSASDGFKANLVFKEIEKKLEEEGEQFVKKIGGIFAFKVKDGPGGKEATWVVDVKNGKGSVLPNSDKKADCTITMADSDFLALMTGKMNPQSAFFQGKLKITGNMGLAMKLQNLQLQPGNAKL
UniProt O95969: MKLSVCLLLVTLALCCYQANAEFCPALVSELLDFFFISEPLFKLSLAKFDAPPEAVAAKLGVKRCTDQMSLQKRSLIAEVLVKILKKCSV
UniProt O43290: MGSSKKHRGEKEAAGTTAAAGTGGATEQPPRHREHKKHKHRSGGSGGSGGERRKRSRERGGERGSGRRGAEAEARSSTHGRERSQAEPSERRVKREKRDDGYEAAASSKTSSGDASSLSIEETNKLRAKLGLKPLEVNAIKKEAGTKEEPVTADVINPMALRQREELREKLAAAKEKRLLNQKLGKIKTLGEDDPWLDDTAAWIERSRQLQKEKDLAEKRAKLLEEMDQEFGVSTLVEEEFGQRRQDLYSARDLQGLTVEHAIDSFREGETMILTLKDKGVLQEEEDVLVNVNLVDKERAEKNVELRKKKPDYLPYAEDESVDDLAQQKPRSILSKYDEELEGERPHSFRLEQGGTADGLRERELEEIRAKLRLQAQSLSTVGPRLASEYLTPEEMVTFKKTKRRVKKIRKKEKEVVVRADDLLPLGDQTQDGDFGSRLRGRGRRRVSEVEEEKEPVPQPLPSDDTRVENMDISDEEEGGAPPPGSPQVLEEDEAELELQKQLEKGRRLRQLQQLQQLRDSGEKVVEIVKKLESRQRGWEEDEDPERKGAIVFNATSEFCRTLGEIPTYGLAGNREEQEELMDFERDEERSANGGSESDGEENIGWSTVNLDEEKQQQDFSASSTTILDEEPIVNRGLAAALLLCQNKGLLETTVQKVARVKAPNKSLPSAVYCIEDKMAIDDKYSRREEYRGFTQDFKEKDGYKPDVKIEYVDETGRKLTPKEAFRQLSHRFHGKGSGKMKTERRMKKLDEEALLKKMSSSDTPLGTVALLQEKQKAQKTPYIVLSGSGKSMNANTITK
UniProt P60468, whole entry, looked up: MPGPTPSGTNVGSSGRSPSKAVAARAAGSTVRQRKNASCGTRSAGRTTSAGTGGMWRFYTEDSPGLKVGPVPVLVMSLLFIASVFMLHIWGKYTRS
UniProt O43819: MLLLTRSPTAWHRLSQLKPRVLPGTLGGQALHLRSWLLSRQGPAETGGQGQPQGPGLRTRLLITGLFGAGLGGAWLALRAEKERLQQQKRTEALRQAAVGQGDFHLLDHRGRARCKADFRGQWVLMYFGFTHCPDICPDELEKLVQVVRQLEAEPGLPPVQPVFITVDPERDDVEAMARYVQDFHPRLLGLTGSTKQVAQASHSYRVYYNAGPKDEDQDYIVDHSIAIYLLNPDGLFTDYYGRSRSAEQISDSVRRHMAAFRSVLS

Key:
Test in all cases: log2 fold change, soluble protein after heating vs DMSO (PISA); higher = thermal stabilisation; K562 lysate, 10 uM; active = over 0.2 and 3.5 SD of the protein, either way, in both replicates (recomputed)
[1] = compound: Cc1cn(-c2cc(NC(=O)c3ccc(C)c(Nc4nccc(-c5cccnc5)n4)c3)cc(C(F)(F)F)c2)cn1 [nilotinib]
In short: (§1)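 Values give the log-two fold change in thermal stability against solvent controls, from duplicates. Crude K562 extract at 1 mg/mL protein, made by dounce homogenisation in PBS pH 7.4 with 1 mM MgCl2, was treated with 10 μM compound for 30 min. After 3 min heating across 48°C-58°C, aliquots were pooled, adjusted to 0.5% NP-40 at 4°C and centrifuged at 21,000xg for 90 min. The supernatant was measured by TMTpro 16plex LC-MS/MS with channel sums equalised.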

[2] = compound: Cc1nc(Nc2n[nH]c3c2CN(C(=O)N[C@H](CN(C)C)c2ccccc2)C3(C)C)c2sccc2n1
In short: as §1

[3] = compound: Cc1nc(Nc2ncc(C(=O)Nc3c(C)cccc3Cl)s2)cc(N2CCN(CCO)CC2)n1 [dasatinib]
In short: as §1

[4] = compound: Cc1ncc(-c2ccnc(Nc3ccc(S(C)(=O)=O)cc3)n2)n1C(C)C
In short: as §1

[5] = compound: Cn1cc(-c2ccc3c(c2)CCN3C(=O)Cc2cccc(C(F)(F)F)c2)c2c(N)ncnc21
In short: as §1

[6] = compound: Cn1cc(CNCC2CCN(c3ncc(C(=O)NO)cn3)CC2)c2ccccc21 [quisinostat]
In short: as §1

[7] = compound: Cn1cncc1[C@@](N)(c1ccc(Cl)cc1)c1ccc2c(c1)c(-c1cccc(Cl)c1)cc(=O)n2C [tipifarnib]
In short: as §1

[8] = compound: NC(=O)Nc1cc(-c2cccc(F)c2)sc1C(=O)N[C@H]1CCCNC1
In short: as §1

[9] = compound: NC(=O)c1cnc(N[C@@H]2CCCC[C@@H]2N)nc1Nc1cccc(-n2nccn2)c1
In short: as §1

[10] = compound: NC1(c2ccc(-c3nc4ccn5c(=O)[nH]nc5c4cc3-c3ccccc3)cc2)CCC1
In short: as §1

Measured: log2 fold change

SEPHS2 (UniProt Q99611)
inactive: [1] -0.012 | [2] 0.015 | [3] 0 | [4] -0.028 | [5] -0.018 | [6] -0.042 | [7] -0.009 | [8] -0.013 | [9] 0.001 | [10] 0.026

SAFB2 (UniProt K7EQU4)
inactive: [1] 0.074 | [2] -0.032 | [3] -0.006 | [4] 0.005 | [5] -0.149 | [6] -0.13 | [7] 0.042 | [8] 0.062

SCRN2 (UniProt Q96FV2)
inactive: [1] -0.138 | [2] 0.068 | [3] -0.052 | [4] -0.095 | [5] 0.061 | [6] -0.067 | [7] -0.1 | [8] 0.001 | [9] -0.021 | [10] 0.001

SELENBP1 isoform 4 (UniProt Q13228)
inactive: [1] 0.019 | [2] -0.006 | [3] 0.021 | [4] -0.033 | [5] 0.029 | [6] 0 | [7] 0.012 | [8] 0.01 | [9] -0.001 | [10] 0.007

SEC24A (UniProt O95486)
inactive: [1] 0.033 | [2] -0.011 | [3] -0.03 | [4] -0.007 | [5] 0 | [6] 0.005 | [7] -0.042 | [8] 0.006 | [9] -0.004 | [10] -0.019

SEPSECS (UniProt Q9HD40)
inactive: [1] 0.029 | [2] 0.008 | [3] 0.01 | [4] 0.024 | [5] 0.024 | [6] 0.015 | [7] -0.039 | [8] -0.012 | [9] 0.012 | [10] -0.014

SEC23A (UniProt Q15436)
inactive: [1] -0.025 | [2] -0.042 | [3] -0.016 | [4] 0.086 | [5] 0.036 | [6] 0.005 | [7] -0.062 | [8] 0.002 | [9] 0.002 | [10] -0.017

SEC23B (UniProt Q15437)
inactive: [1] -0.011 | [2] 0.01 | [3] 0.002 | [4] -0.003 | [5] -0.012 | [6] 0.001 | [7] 0.013 | [8] -0.006 | [9] -0.012 | [10] -0.002

SDHC (UniProt Q99643)
inactive: [1] -0.009 | [2] 0.056 | [3] -0.001 | [4] -0.006 | [5] -0.015 | [6] 0 | [7] -0.068 | [8] -0.057 | [9] -0.016 | [10] 0.028

SARG (UniProt Q9BW04)
inactive: [1] -0.025 | [2] 0.016 | [3] 0.013 | [4] -0.008 | [5] -0.035 | [6] 0.003 | [7] 0 | [8] -0.044 | [9] -0.003 | [10] -0.012

SELENOS (UniProt Q9BQE4)
inactive: [1] 0.044 | [2] 0.069 | [3] 0 | [4] -0.046 | [5] -0.03 | [6] -0.034 | [7] 0.089 | [8] -0.032 | [9] 0.016 | [10] -0.025

SCARB2 (UniProt Q14108)
inactive: [1] 0.003 | [2] 0.026 | [3] 0.018 | [4] 0.007 | [5] 0.009 | [6] -0.014 | [7] 0.008 | [8] 0.011 | [9] -0.001 | [10] -0.011

6 consecutive records out of the list so far, for reference:
SAFB2 (UniProt K7EQU4)
inactive: [1] 0.074 | [2] -0.032 | [3] -0.006 | [4] 0.005 | [5] -0.149 | [6] -0.13 | [7] 0.042 | [8] 0.062

SCRN2 (UniProt Q96FV2)
inactive: [1] -0.138 | [2] 0.068 | [3] -0.052 | [4] -0.095 | [5] 0.061 | [6] -0.067 | [7] -0.1 | [8] 0.001 | [9] -0.021 | [10] 0.001

SELENBP1 isoform 4 (UniProt Q13228)
inactive: [1] 0.019 | [2] -0.006 | [3] 0.021 | [4] -0.033 | [5] 0.029 | [6] 0 | [7] 0.012 | [8] 0.01 | [9] -0.001 | [10] 0.007

SEC24A (UniProt O95486)
inactive: [1] 0.033 | [2] -0.011 | [3] -0.03 | [4] -0.007 | [5] 0 | [6] 0.005 | [7] -0.042 | [8] 0.006 | [9] -0.004 | [10] -0.019

SEPSECS (UniProt Q9HD40)
inactive: [1] 0.029 | [2] 0.008 | [3] 0.01 | [4] 0.024 | [5] 0.024 | [6] 0.015 | [7] -0.039 | [8] -0.012 | [9] 0.012 | [10] -0.014

SEC23A (UniProt Q15436)
inactive: [1] -0.025 | [2] -0.042 | [3] -0.016 | [4] 0.086 | [5] 0.036 | [6] 0.005 | [7] -0.062 | [8] 0.002 | [9] 0.002 | [10] -0.017

More results follow:

SALL2 (UniProt Q9Y467)
inactive: [1] -0.08 | [2] -0.026 | [3] 0.046 | [4] 0.031 | [5] -0.073 | [6] 0.039 | [7] -0.106 | [8] 0.02 | [9] -0.153 | [10] -0.039

SEC63 (UniProt Q9UGP8)
inactive: [1] -0.01 | [2] -0.011 | [3] 0.021 | [4] -0.026 | [5] -0.004 | [6] 0.026 | [7] -0.018 | [8] -0.009 | [9] 0.039 | [10] 0.006

SEPTIN6 (UniProt Q14141)
inactive: [1] 0.033 | [2] -0.036 | [3] 0.038 | [4] 0.058 | [5] -0.002 | [6] -0.113 | [7] 0.071 | [8] 0.043 | [9] 0.002 | [10] 0.04

SAP30BP (UniProt Q9UHR5)
inactive: [1] -0.017 | [2] 0.022 | [3] 0.011 | [4] -0.016 | [5] -0.008 | [6] -0.032 | [7] -0.028 | [8] -0.002 | [9] 0.005 | [10] -0.019

SEPTIN9 (UniProt Q9UHD8)
inactive: [1] 0.001 | [2] -0.011 | [3] -0.01 | [4] -0.008 | [5] 0.001 | [6] -0.016 | [7] 0.023 | [8] 0.015 | [9] -0.01 | [10] 0.018

SAR1A (UniProt Q9NR31)
inactive: [1] 0.145 | [2] 0.164 | [3] 0.017 | [4] -0.009 | [5] 0.01 | [6] 0.095 | [7] -0.172 | [8] -0.055 | [9] -0.154 | [10] -0.045

SCP2 (UniProt P22307)
inactive: [1] 0.022 | [2] -0.021 | [3] 0.053 | [4] -0.001 | [5] -0.021 | [6] 0 | [7] 0.004 | [8] -0.002 | [9] -0.013 | [10] 0.006

SCGB1D2 (UniProt O95969)
inactive: [1] 0.056 | [2] 0.21 | [3] 0.207 | [4] -0.097 | [5] 0.293 | [6] 0.203 | [7] -0.357 | [8] -0.43 | [9] 0.369 | [10] 0.211

SART1 (UniProt O43290)
inactive: [1] -0.019 | [2] 0.005 | [3] 0.019 | [4] 0.008 | [5] -0.017 | [6] -0.042 | [7] -0.01 | [8] -0.016 | [9] 0.001 | [10] -0.003

SAAL1 (UniProt Q96ER3)
inactive: [1] -0.015 | [2] -0.01 | [3] -0.013 | [4] -0.013 | [5] 0.062 | [6] 0.041 | [7] 0 | [8] 0.009 | [9] 0.005 | [10] -0.01

SEC61B (UniProt P60468)
inactive: [1] -0.056 | [2] 0.031 | [3] 0.084 | [4] -0.053 | [5] -0.039 | [6] 0.088 | [7] -0.024 | [8] -0.043 | [9] 0.014 | [10] -0.008

SEPTIN8 (UniProt Q92599)
inactive: [1] 0.008 | [2] -0.031 | [3] 0 | [4] 0.004 | [5] 0.01 | [6] 0.036 | [7] 0.025 | [8] -0.033 | [9] -0.007 | [10] 0.007

SCML2 (UniProt Q9UQR0)
inactive: [1] 0.042 | [2] 0.004 | [3] -0.014 | [4] -0.06 | [5] 0.027 | [6] 0.007 | [7] 0.065 | [8] 0.048 | [9] 0.012 | [10] -0.022

SAR1B (UniProt Q9Y6B6)
inactive: [1] 0.202 | [2] 0.101 | [3] 0.047 | [4] -0.013 | [5] -0.038 | [6] 0.028 | [7] -0.217 | [8] -0.02 | [9] -0.092 | [10] -0.016

SCO2 (UniProt O43819)
inactive: [1] 0.15 | [2] -0.283 | [3] -0.05 | [4] -0.337 | [5] 0.106 | [6] 0.007 | [7] -0.062 | [8] -0.005 | [9] 0.05 | [10] -0.1

SAMHD1 (UniProt Q9Y3Z3)
inactive: [1] -0.006 | [2] 0.008 | [3] -0.026 | [4] 0.013 | [5] 0.066 | [6] -0.02 | [7] 0.03 | [8] 0.054 | [9] 0.046 | [10] 0.004
